Results are given in words; binding and its absence hold for the method and conditions named. Binding seen in cells or lysates may run through a third protein. These calls come from enrichment with a bait or labelling near it, and not all partners need be listed.

Chains of the proteins cited; added tags and fusions are not shown.
UniProt Q8VBV4: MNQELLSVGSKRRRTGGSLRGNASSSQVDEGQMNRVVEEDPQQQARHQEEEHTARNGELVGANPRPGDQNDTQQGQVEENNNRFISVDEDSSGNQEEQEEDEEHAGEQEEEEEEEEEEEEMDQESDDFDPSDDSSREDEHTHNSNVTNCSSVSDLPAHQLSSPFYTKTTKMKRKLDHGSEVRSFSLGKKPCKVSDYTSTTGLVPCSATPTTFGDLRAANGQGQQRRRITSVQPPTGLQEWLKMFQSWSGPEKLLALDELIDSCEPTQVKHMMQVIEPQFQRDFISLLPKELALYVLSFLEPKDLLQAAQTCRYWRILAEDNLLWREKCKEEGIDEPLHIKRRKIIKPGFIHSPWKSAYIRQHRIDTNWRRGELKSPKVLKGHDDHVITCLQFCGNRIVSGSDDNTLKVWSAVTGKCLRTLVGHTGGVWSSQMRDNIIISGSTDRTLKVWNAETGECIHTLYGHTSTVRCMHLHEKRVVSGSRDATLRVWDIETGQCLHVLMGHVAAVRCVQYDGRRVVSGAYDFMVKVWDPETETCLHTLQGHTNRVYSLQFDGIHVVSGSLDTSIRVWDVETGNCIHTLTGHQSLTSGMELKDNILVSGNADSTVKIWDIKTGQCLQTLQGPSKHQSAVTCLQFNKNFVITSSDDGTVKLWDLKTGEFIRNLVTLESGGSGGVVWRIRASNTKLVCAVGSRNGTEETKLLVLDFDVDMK
UniProt Q8BSK8: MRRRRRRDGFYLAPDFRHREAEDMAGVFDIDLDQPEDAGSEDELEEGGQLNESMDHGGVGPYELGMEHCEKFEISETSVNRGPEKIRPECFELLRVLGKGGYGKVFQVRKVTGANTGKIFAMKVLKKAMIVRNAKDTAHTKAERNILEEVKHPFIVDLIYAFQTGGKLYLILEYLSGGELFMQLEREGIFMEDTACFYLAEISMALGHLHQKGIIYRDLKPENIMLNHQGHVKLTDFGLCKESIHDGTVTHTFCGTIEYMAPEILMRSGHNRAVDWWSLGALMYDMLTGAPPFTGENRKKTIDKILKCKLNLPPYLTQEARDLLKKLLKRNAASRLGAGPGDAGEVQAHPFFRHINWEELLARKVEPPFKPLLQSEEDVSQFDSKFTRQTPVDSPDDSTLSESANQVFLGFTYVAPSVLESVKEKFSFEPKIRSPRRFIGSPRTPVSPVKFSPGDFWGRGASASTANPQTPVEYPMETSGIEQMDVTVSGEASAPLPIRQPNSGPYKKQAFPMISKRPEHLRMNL

The assay concerns the target FBXW7 overexpressed by adenovirus (ADV-FBXW7) (UniProt Q8VBV4). In words: affinity purification with mass spectrometry; mature brown adipocytes infected with ADV-FBXW7 for 48 h; lysate with anti-FBXW7 or anti-IgG and protein A/G beads overnight at 4 °C; SDS-PAGE, silver staining, LC-MS.

On to “S6K1 (endogenous) (from UniProt Q8BSK8 1-525)”, for which the binding result is listed as “binds”.

The record behind these values is article PMC11811183.
